A weaker result is weaker than the reference pair of the same experiment. Where a protein sequence is shown, tags need not be part of it.
Target: T1, MCPH1 196-435-MBP (Homo sapiens) (UniProt Q8NEM0)
T1 sequence (looked up): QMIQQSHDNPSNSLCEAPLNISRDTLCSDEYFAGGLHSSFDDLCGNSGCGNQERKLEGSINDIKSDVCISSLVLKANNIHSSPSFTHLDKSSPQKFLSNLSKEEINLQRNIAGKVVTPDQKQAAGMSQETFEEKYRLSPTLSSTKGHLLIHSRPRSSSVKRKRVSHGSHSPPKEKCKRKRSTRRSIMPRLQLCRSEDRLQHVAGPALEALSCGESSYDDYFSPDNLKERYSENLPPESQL
Test: EMSA
Details: 50 nM DNA, higher concentration than 1-435 needed for complete shift; EMSA with 50 nM 5'-Cy5 50 bp dsDNA; EMSA buffer; recombinant protein; residues 196-435; protein details: His6 and MBP (named C-terminal MBP in Fig 7); label: 5' Cy5

CTGTCACACCCTGTCACACCCTGTCACACCCTGTCACACCCTGTCACACC (double strand) [50 bp dsDNA]
binding result: binds more weakly

From paper PMC8673838, “MCPH1 inhibits Condensin II during interphase by regulating its SMC2-Kleisin interface” (eLife, 2021)
